Reference: paper PMC12040169 (PLOS Biology, 2025)
The list shows a part of the results.

system: T1, CTL2-GFP (C. trachomatis L2/434/Bu, GFP-expressing); parameters: species or system HeLa; Intracellular C. trachomatis growth in HeLa cells, bulk GFP fluorescence relative to DMSO; conditions: bulk GFP, single well; 28.5 h, 10 µM; inhibitor
T1 construct: L2/434/Bu, GFP-expressing

Row | SMILES | % of control remaining
1 | CNS(=O)(=O)c1ccc(C)c(NC(C)=O)c1C [CBK034426] | 127.15%
2 | CC(C)C(=O)Nc1ccc2ccc(-c3ccc(C(C)(C)C)cc3)nc2n1 [CBK073669] | 121.57%
3 | O=C(Nc1nnc(-c2ccccc2)o1)C1COc2ccccc2O1 (stereo not drawn) [CBK287596] | 132.022%
4 | Cc1n[nH]c(=O)c2c(C)noc12 [CBK001281] | 104.437%
5 | O=C(COc1cccnc1)N1CCN(c2ccccc2)CC1 [CBK200210] | 83.1266%
6 | Cc1cc(NC(=O)CCC2CCCCC2)nc2c1c(=O)oc1ccccc12 [CBK291125] | 101.497%
7 | Oc1ccc(-c2cncc(Nc3cccc(Br)c3)n2)cc1 [CBK107803] | 134.893%
8 | Cc1ccnc2c1C(=O)C1(CC2)CCN(C(=O)Nc2ccc(F)cc2F)CC1 [CBK059553T] | 121.443%
9 | C#CCOc1ccc(/C=N/N=C(\N)c2nonc2N)cc1OC [CBK264765] | 104.712%
10 | COc1ccc2[nH]cc(CCNC(=O)N3CCCC(C(=O)O)C3)c2c1 (stereo not drawn) [CBK161351] | 141.734%
11 | CCn1c2ccccc2c2cc(CN3CCN(S(=O)(=O)c4ccc(NC(C)=O)cc4)CC3)ccc21 [CBK264248] | 107.202%
12 | CCNc1nc(-c2ccc(SCC)cc2)cn2ccnc12 [CBK066489] | 117.698%
13 | Cc1ccc(-c2csc(NC(=O)c3ccc(S(=O)(=O)N4CCOCC4)cc3)n2)cc1 [CBK094024] | 116.24%
14 | COc1ccc2c(c1)CC(=O)NC21CCN(CCCCC(C)C)CC1 [CBK039839] | 109.999%
15 | Cc1ccc(-n2ncc3c(=O)n(CC(=O)N4CCCCC4)cnc32)cc1 [CBK287532] | 188.897%
16 | Cc1c(C(=O)CCN(C)C2CC=C(c3ccc(F)cc3)CC2)cnn1CCO (stereo not drawn) [CBK023799] | 126.593%
17 | CCc1nc2c(C(=O)NCCNC(C)=O)cnn2c(CC)c1Cc1ccc(Cl)cc1 [CBK165730] | 110.77%
18 | CCNC(=O)C1(Cc2ccc(-c3ccncc3)cc2)CCN(C(=O)CC2CCCCC2)CC1 [CBK285785] | 120.81%
19 | Cn1nc(-c2ccc(F)cc2)cc1[C@H]1CN2CC[C@H]1C[C@@H]2CNC(=O)N1CCOCC1 [CBK289108] | 98.7547%
20 | Nc1ncc(-c2ccc(CN3CCOCC3)cc2)nc1-c1ccc(O)cc1 [CBK123798] | 98.8657%
21 | CCOC(=O)c1c(-c2ccccc2)oc2ccc(OCC(=O)NN)cc12 [CBK263826] | 118.932%
22 | COc1cc2cc3c(N)c(C(=O)N4CCCc5ccccc54)sc3nc2cc1OC [CBK117298] | 105.197%
23 | CC(C)(CC(=O)O)CC(=O)Nc1ccc2c(c1)ncn2CCc1ccccc1 [CBK299768] | 177.191%
24 | c1ccc2c(c1)ccn2Cc1ccc(-c2nccnc2-c2nnn[nH]2)cc1 [CBK050821] | 104.985%
25 | Cc1cnn(CC(=O)NC(Cc2ccsc2)c2nc(C)cs2)c1 (stereo not drawn) [CBK285151] | 124.183%

Row | SMILES | % of control remaining
26 | CC(C)(C)OC(=O)NC(C)(C)C(=O)N1C[C@H](C(=O)N2CCC3(CC2)CN(S(C)(=O)=O)c2ccccc23)[C@@H](c2nc3ccccc3s2)C1 [CBK136737] | 126.801%
27 | COc1ccc(Cl)cc1S(=O)(=O)N1CCC(C(=O)NCc2cccnc2)CC1 [CBK269878] | 137.077%
28 | CC(C)NC(=O)Cn1ccc2ccnc(-c3cccs3)c21 [CBK284732] | 116.625%
29 | O=C(CSc1nnc(Cc2cccs2)n1-c1ccccc1)Nc1ccc(F)c(Cl)c1 [CBK267589] | 122.062%
30 | Cc1ncc(CN(C)C(C)C(=O)Nc2ccccc2N2CCCC2=O)s1 (stereo not drawn) [CBK298274] | 99.276%
31 | CCc1nnc(NS(=O)(=O)c2ccc(NC(=S)Nc3ccc(F)cc3)cc2)s1 [CBK050037] | 42.7279%
32 | Cc1ccc(C(C)(C)CC(C)NCc2ccc(Cl)cc2)o1 (stereo not drawn) [CBK262873] | 142.546%
33 | COCCC(=O)N[C@H]1CC[C@]2(C)CCC([C@H](C)C(=O)N3CCC(C)CC3)[C@H](O)[C@H]2[C@@H]1C (stereo partly drawn) [CBK289451] | 139.321%
34 | CS(=O)(=O)Nc1cc(-c2noc([C@@H]3CCCN3Cc3ccc(S(C)(=O)=O)cc3)n2)ccn1 [CBK288890] | 115.967%
35 | Cc1ccc(C(=O)NC2CCCCCC2)cc1C [CBK083665] | 113.152%
36 | Cc1ccc(N2CCCC2=O)cc1S(=O)(=O)NC(c1ccccc1)c1ccccc1 [CBK286348] | 73.3467%
37 | O=C(C1CCOCC1)N1CCCC[C@H]2CN(Cc3ccccc3)C[C@H]21 [CBK284839] | 142.258%
38 | O=C(CCn1c(-c2ccncc2)cc2cccnc21)NC1CCCCC1 [CBK282621] | 127.51%
39 | CCN1CCN(Cc2nc3c(c(=O)n(C)c(=O)n3C)n2Cc2c(F)cccc2Cl)CC1 [CBK269236] | 137.227%
40 | CCOC(=O)C(NC(=O)CC)(Nc1cc(C)on1)C(F)(F)F (stereo not drawn) [CBK025721] | 106.842%
41 | C/C(=N\O)c1oc2ccccc2c(=O)c1O [CBK010642] | 129.887%
42 | COc1cc(OC)c(NC(=O)CN(C)S(=O)(=O)c2cc(Cl)ccc2Cl)cc1Cl [CBK267399] | 157.673%
43 | COc1cc(NC(=S)N2CCN(c3cc(Cl)ccc3C)CC2)cc(OC)c1 [CBK266252] | 135.897%
44 | COc1ccc(C(=O)[C@H]2CCCN(C(=O)c3ccco3)C2)cc1 [CBK284327] | 78.261%
45 | O=C1CC(N2CCN(Cc3ccc4c(c3)OCO4)CC2)C(=O)N1c1ccc(Cl)c(Cl)c1 (stereo not drawn) [CBK074549] | 90.5916%
46 | O=[N+]([O-])c1cc(S(=O)(=O)Nc2cccc3ccccc23)ccc1N1CCNCC1 [CBK015584C] | 88.1703%
47 | CC(C)Nc1nc2ccccc2nc1OC1CCN(C)C1 (stereo not drawn) [CBK113283] | 100%
48 | CC(C)NC(=O)NC[C@H]1C[C@@H]2CCN1C[C@@H]2c1cc(-c2cccs2)nn1C [CBK289103] | 107.689%
49 | COc1ccccc1-c1cn2ccnc2c(N2CCCC2CO)n1 (stereo not drawn) [CBK037266] | 129.045%
50 | CCc1nnc(NC(=O)CSc2nc3c([nH]2)c(=O)n(C)c(=O)n3C)s1 [CBK025840] | 135.434%

Row | SMILES | % of control remaining
51 | CN1CCC(NC(=O)c2cccc(OCC(=O)N3CCCCC3)c2)C1=O (stereo not drawn) [CBK307281] | 141.71%
52 | CC(=O)OCc1c(C)cc(C)c(CN(C)C(C)c2ccncn2)c1C (stereo not drawn) [CBK307315] | 108.164%
53 | CCOC(=O)c1nnc(-c2cccs2)nc1NC1CCCCC1 [CBK018110] | 114.811%
54 | COc1nccnc1N1CCN(Cc2ccc([N+](=O)[O-])cc2)CC1 [CBK084217] | 95.3639%
55 | Cc1ccc(CSCCNS(=O)(=O)c2ccc([N+](=O)[O-])cc2)cc1 [CBK268496] | 99.5825%
56 | Cn1c(=O)oc2ccc(C(=O)CSc3nnnn3-c3ccccc3)cc21 [CBK300488] | 149.961%
57 | c1cncc(CN2CCC[C@@H]2CN2CCCC2)c1 [CBK149101C] | 92.0143%
58 | O=C(O)CCN1CCN(S(=O)(=O)c2cccc([N+](=O)[O-])c2)CC1 [CBK268819] | 136.356%
59 | COc1cc2c(cc1OC)/C(=C(\C(=O)Nc1ccccc1)C(=O)N1CCCCC1)NC(C)(C)C2 [CBK087103] | 127.372%
60 | CS(=O)(=O)N[C@H]1CO[C@H]2[C@@H]1OC[C@H]2OC(=O)Nc1cccc2ccccc12 [CBK289469] | 122.233%
61 | COc1ccc(-c2ccc3c(c2)C(=O)N2CCN(C(=O)CC(C)(C)C)C[C@@H]2C(=O)N3)cc1 [CBK289584] | 147.78%
62 | COc1ccccc1C(NC(=O)C1CCN(C(=O)c2cccc(Cl)c2)CC1)c1ccccn1 (stereo not drawn) [CBK059637] | 202.12%
63 | O=C(O)c1cc(-c2ccc(OC(F)F)cc2)[nH]n1 [CBK288022] | 122.518%
64 | C=CCSc1nnc(CSc2nc3sc4c(c3c(=O)[nH]2)CCCC4)n1-c1ccccc1 [CBK263341] | 112.227%
65 | CN1C(=O)COc2ccccc2CCCC[C@@H]2[C@H]1CCCN2C(=O)CCCn1cccn1 [CBK292090] | 123.657%
66 | O=C(O)C1CCN(C(=O)CSc2nc3ccccc3o2)CC1 [CBK286557] | 93.4621%
67 | COCc1cc(C)nc2c1C(=O)NC(c1ccccc1C(=O)O)N2Cc1ccccc1 (stereo not drawn) [CBK286599] | 119.212%
68 | Cc1ccc(C(=O)N(C)CCN(C)C)c(NCc2cccnc2)n1 [CBK076348] | 182.861%
69 | CC(=O)Nc1ccccc1OCc1cc(-c2ccccc2)on1 [CBK296617] | 147.966%
70 | Cn1nc(CN(Cc2ccccc2C(F)(F)F)C2CC2)[nH]c1=O [CBK306391] | 105.962%
71 | COc1cc(/C=N/NC(=O)CCn2c3ccccc3c3ccccc32)ccc1O [CBK262332] | 121.635%
72 | O=C(NCc1cccnc1)c1csc2c1CCCC2 [CBK305029] | 125.79%
73 | Cc1nn(-c2ccccc2)c2[nH]c(=O)c(CNC(c3ccccc3)c3ccco3)cc12 (stereo not drawn) [CBK286449] | 111.304%
74 | CC(=O)Nc1cccc(Oc2cnc(-c3ccc(OC(F)(F)F)cc3)c(N)n2)c1 [CBK145119] | 100.516%
75 | CC1CCc2c(sc3ncnc(NCCCN4CCCCCC4=O)c23)C1 (stereo not drawn) [CBK305947] | 78.7158%

An excerpt of these results, in markdown:

| Row | SMILES | % of control remaining |
| --- | --- | --- |
| 16 | Cc1c(C(=O)CCN(C)C2CC=C(c3ccc(F)cc3)CC2)cnn1CCO (stereo not drawn) [CBK023799] | 126.593% |
| 17 | CCc1nc2c(C(=O)NCCNC(C)=O)cnn2c(CC)c1Cc1ccc(Cl)cc1 [CBK165730] | 110.77% |
| 18 | CCNC(=O)C1(Cc2ccc(-c3ccncc3)cc2)CCN(C(=O)CC2CCCCC2)CC1 [CBK285785] | 120.81% |
| 19 | Cn1nc(-c2ccc(F)cc2)cc1[C@H]1CN2CC[C@H]1C[C@@H]2CNC(=O)N1CCOCC1 [CBK289108] | 98.7547% |
| 20 | Nc1ncc(-c2ccc(CN3CCOCC3)cc2)nc1-c1ccc(O)cc1 [CBK123798] | 98.8657% |
| 21 | CCOC(=O)c1c(-c2ccccc2)oc2ccc(OCC(=O)NN)cc12 [CBK263826] | 118.932% |
| 22 | COc1cc2cc3c(N)c(C(=O)N4CCCc5ccccc54)sc3nc2cc1OC [CBK117298] | 105.197% |
| 23 | CC(C)(CC(=O)O)CC(=O)Nc1ccc2c(c1)ncn2CCc1ccccc1 [CBK299768] | 177.191% |
| 24 | c1ccc2c(c1)ccn2Cc1ccc(-c2nccnc2-c2nnn[nH]2)cc1 [CBK050821] | 104.985% |
| 25 | Cc1cnn(CC(=O)NC(Cc2ccsc2)c2nc(C)cs2)c1 (stereo not drawn) [CBK285151] | 124.183% |
| 26 | CC(C)(C)OC(=O)NC(C)(C)C(=O)N1C[C@H](C(=O)N2CCC3(CC2)CN(S(C)(=O)=O)c2ccccc23)[C@@H](c2nc3ccccc3s2)C1 [CBK136737] | 126.801% |
| 27 | COc1ccc(Cl)cc1S(=O)(=O)N1CCC(C(=O)NCc2cccnc2)CC1 [CBK269878] | 137.077% |
| 28 | CC(C)NC(=O)Cn1ccc2ccnc(-c3cccs3)c21 [CBK284732] | 116.625% |
| 29 | O=C(CSc1nnc(Cc2cccs2)n1-c1ccccc1)Nc1ccc(F)c(Cl)c1 [CBK267589] | 122.062% |
| 30 | Cc1ncc(CN(C)C(C)C(=O)Nc2ccccc2N2CCCC2=O)s1 (stereo not drawn) [CBK298274] | 99.276% |
| 31 | CCc1nnc(NS(=O)(=O)c2ccc(NC(=S)Nc3ccc(F)cc3)cc2)s1 [CBK050037] | 42.7279% |
| 32 | Cc1ccc(C(C)(C)CC(C)NCc2ccc(Cl)cc2)o1 (stereo not drawn) [CBK262873] | 142.546% |
| 33 | COCCC(=O)N[C@H]1CC[C@]2(C)CCC([C@H](C)C(=O)N3CCC(C)CC3)[C@H](O)[C@H]2[C@@H]1C (stereo partly drawn) [CBK289451] | 139.321% |
| 34 | CS(=O)(=O)Nc1cc(-c2noc([C@@H]3CCCN3Cc3ccc(S(C)(=O)=O)cc3)n2)ccn1 [CBK288890] | 115.967% |
| 35 | Cc1ccc(C(=O)NC2CCCCCC2)cc1C [CBK083665] | 113.152% |
